By UniProt entry, the sequences of proteins in these tests, tags left out.
UniProt O43613, whole entry: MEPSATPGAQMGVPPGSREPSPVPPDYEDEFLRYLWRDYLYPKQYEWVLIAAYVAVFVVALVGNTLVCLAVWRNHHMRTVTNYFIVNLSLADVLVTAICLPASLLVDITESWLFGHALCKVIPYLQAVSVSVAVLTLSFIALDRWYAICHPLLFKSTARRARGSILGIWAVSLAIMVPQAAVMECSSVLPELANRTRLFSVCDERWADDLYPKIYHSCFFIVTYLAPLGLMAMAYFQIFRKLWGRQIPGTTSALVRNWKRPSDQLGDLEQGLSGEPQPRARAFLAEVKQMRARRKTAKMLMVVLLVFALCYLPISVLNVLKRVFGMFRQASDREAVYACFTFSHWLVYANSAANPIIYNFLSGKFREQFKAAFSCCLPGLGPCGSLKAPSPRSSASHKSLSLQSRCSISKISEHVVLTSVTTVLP
UniProt O43614, whole entry: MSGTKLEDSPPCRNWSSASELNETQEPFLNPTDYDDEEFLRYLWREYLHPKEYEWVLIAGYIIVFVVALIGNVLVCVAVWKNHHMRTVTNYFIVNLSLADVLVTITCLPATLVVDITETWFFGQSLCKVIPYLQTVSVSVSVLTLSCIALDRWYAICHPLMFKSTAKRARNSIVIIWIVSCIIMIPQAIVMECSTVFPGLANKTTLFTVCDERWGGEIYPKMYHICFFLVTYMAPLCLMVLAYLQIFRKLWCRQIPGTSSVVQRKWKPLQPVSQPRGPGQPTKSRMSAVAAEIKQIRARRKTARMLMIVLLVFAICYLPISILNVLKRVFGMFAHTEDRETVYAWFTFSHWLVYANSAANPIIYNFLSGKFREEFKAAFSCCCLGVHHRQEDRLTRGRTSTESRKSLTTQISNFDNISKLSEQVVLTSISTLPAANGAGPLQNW

According to patent US20160102073A1, “2-HYDROXYMETHYL-SUBSTITUTED OREXIN RECEPTOR ANTAGONISTS” (MERCK SHARP & DOHME CORP., priority 2013, published 2016):

How the values were obtained:
[1] = molecular target: human orexin-1 receptor (hOX1R) (Homo sapiens, UniProt O43613); test: FLIPR Ca2+ Flux Assay, CHO cells expressing hOX1R; assay type: cell-based; details: read-out: hOX1R FLIPR IC50, agonist 70 pM Ala-6,12 orexin-A
[2] = molecular target: human orexin-2 receptor (hOX2R) (Homo sapiens, UniProt O43614); test: FLIPR Ca2+ Flux Assay, CHO cells expressing hOX2R; assay type: cell-based; details: read-out: hOX2R FLIPR IC50, agonist 70 pM Ala-6,12 orexin-A
Procedure: The utility of the compounds in accordance with the present invention as orexin receptor OX1R and/or OX2R antagonists may be readily determined without undue experimentation by methodology well known in the art, including the “FLIPR Ca^2+ Flux Assay” (Okumura et al., Biochem. Biophys. Res. Comm. 280:976-981, 2001). In a typical experiment the OX1 and OX2 receptor antagonistic activity of the compounds of the present invention was determined in accordance with the following experimental method. […] Within the Fluorescent Imaging Plate Reader (FLIPR, Molecular Devices), test compounds are added to the plate in a volume of 25 μl, incubated for 5 min and finally 25 μl of agonist is added. Fluorescence is measured for each well at 1 second intervals for 5 minutes and the height of each fluorescence peak is compared to the height of the fluorescence peak induced by 70 pM Ala-6,12 orexin-A with buffer in place of antagonist. […] Alternatively, compound potency can be assessed by a radioligand binding assay (described in Bergman et. al. Bioorg. Med. Chem. Lett. 2008, 18, 1425-1430) in which the inhibition constant (Ki) is determined in membranes prepared from CHO cells expressing either the OX1 or OX2 receptor. The intrinsic orexin receptor antagonist activity of a compound which may be used in the present invention may be determined by these assays. […]

C[C@@H]1CC[C@@H](Oc2ncccc2C(C)(C)O)CN1C(=O)c1ccc(F)cc1-c1ncccn1
IC50 [1]: 550 nM
IC50 [2]: 94 nM

The structures given here were assigned with low confidence; some may be wrong.
